# Experimental data taken from patent publication US20260158064A1 (NANJING PROBIO BIOTECH, published 2026).
# Amino acid sequences for entries named in this document (tags omitted). Residues count along the entry.
# UniProt Q01973, residues 30-937: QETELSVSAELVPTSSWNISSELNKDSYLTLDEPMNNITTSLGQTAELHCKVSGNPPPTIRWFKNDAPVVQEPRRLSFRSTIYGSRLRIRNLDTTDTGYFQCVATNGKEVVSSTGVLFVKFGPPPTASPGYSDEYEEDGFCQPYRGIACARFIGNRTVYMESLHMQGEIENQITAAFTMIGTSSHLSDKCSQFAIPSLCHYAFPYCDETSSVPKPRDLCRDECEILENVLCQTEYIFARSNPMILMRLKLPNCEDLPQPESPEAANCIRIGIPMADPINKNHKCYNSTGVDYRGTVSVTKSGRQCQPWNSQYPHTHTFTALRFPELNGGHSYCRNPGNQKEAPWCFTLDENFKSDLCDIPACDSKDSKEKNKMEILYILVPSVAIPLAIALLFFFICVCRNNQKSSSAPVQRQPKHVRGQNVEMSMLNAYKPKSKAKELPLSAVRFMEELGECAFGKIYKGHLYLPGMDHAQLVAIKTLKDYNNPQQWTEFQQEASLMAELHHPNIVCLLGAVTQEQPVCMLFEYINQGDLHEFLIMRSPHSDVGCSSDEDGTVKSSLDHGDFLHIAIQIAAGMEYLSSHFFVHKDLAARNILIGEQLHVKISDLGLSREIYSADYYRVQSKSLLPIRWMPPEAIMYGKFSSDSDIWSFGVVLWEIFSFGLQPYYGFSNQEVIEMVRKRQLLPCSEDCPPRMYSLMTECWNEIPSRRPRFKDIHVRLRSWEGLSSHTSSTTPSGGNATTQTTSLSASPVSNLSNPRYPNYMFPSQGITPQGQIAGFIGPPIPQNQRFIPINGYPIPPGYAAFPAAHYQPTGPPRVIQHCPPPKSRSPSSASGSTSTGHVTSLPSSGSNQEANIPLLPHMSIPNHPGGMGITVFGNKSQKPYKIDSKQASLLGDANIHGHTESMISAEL
# UniProt Q9Z139, residues 30-937: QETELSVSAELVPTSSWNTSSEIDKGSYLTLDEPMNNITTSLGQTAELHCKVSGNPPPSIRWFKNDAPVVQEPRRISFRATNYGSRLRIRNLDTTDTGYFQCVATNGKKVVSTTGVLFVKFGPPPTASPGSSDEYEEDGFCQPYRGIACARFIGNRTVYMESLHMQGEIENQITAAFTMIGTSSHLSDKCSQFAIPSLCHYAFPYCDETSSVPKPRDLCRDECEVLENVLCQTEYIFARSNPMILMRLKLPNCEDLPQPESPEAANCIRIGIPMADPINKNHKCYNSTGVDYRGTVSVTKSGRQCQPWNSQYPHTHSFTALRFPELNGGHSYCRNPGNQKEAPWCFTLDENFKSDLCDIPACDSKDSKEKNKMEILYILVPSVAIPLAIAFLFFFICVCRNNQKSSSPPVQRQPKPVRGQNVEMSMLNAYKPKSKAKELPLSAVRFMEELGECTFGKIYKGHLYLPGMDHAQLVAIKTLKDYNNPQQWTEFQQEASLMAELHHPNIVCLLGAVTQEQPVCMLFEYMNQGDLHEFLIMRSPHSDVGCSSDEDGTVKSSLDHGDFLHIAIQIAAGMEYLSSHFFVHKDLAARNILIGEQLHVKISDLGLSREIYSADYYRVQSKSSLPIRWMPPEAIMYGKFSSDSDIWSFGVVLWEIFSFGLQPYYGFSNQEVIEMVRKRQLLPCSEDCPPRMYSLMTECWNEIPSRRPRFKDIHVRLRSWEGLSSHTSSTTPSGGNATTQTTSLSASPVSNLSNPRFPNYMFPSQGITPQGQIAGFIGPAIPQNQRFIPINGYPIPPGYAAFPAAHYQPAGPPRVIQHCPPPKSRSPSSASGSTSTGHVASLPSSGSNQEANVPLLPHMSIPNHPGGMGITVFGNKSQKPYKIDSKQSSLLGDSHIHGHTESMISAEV
# No constants are given. Whether binding was seen depends on the method and setting. Some results given as binding are weak or reduced against the parent protein; the word gives no strength.
# Key:
# [1] = target: human ROR1 expressed on CHO cells (CHO-K1/Human ROR1 stable cells) (human) (UniProt Q01973); test: flow cytometry, antibody at 10 ug/ml on CHO cells
# [2] = target: mouse ROR1 expressed on CHO cells (CHO-K1/Mouse ROR1 stable cells) (mouse) (UniProt Q9Z139); test: flow cytometry, antibody at 10 ug/ml on CHO cells
Binder,binding [1],binding [2]
"humanized single domain antibody AHP15485-VHH4 (Fc fusion, Humanized VHH expressed from pcDNA3.4-Fc (Human IgG1); not shown: human IgG1 Fc of the pcDNA3.4-Fc (Human IgG1) expression vector) EVQLVESGGGLVQPGGSLRLSCAASGRSFSNFQMGWFRQAPGKEREFVAASGWSGGPTYYADSVKGRFTISTDNSKNTLYLQMNSLRAEDTAVYYCYEDRVLSGRPVRYWGQGTLVTVSS",binds,binds
"humanized single domain antibody AHP15662-VHH4 (Fc fusion, Humanized VHH expressed from pcDNA3.4-Fc (Human IgG1); not shown: human IgG1 Fc of the pcDNA3.4-Fc (Human IgG1) expression vector) EVQLVESGGGLVQPGGSLRLSCAASGSISRFYAVGWYRQAPGKQRELVARISSGGSTYYADSVKGRFTISIDNSKNTLYLQMNSLRAEDTAVYYCNARNLWGQGTLVTVSS",binds,binds
"humanized single domain antibody AHP15773-VHH4 (Fc fusion, Humanized VHH expressed from pcDNA3.4-Fc (Human IgG1); not shown: human IgG1 Fc of the pcDNA3.4-Fc (Human IgG1) expression vector) EVQLVESGGGLVQPGGSLRLSCAASGSDFSDSAMGWYRQAPGKQREFVAAIGAGGITTYADSVKGRFTISRDNAKNTLYLQMNSLRAEDTAVYFCNFAPGWYPPGYQYWGQGTLVTVSS",binds,binds
